Earlier results in patent US8303536B2, “Implantable delivery device” (Sunstorm Research Corp., priority 2007, dated 2012).
At least one structure is not confirmed: it was looked up by name or label, or the drawing left a doubt.

Test system: women

For C#C[C@]1(O)CC[C@H]2[C@@H]3CCC4=CC(=O)CC[C@@H]4[C@H]3CC[C@@]21CC [levonorgestrel], the “dose required for acceptable effectiveness” value (another study) is listed as 18 μg per day, the “release amount that will prevent conception for most women” value (generally acknowledged) is listed as “approximately 30 μg per day” and the “LNG necessary for contraception” value (in vivo) is listed as 18-30 μg per day. For the same compound, the “threshold dose required for contraception” value (in vivo) was 24 μg per day.
